Where a name gives a salt, the structure may show the parent alone.
Test: Accelerated stability (40 ± 2° C./75 ± 5% RH) of Compound 2
Type: physicochemical
Conditions: 0 month
Method: Three conditions were tested: accelerated stability (40 2° C./75±5% RH) over a 6-month time period, ambient stability (25±2° C./60±5% RH) over a 9-month period, and stability under refrigerator conditions (5 3° C.) over a 9-month time period. The results for accelerated stability, ambient stability, and refrigerator conditions are shown in Table 23, Table 24, and Table 25, respectively.
After six months, the total related substance 1 impurities was only 0.08% and there was no detection of related substance 2 and isomers.

CNc1nc(N)nc2c1ncn2[C@@H]1O[C@H](CO[P@@](=O)(N[C@@H](C)C(=O)OC(C)C)Oc2ccccc2)[C@@H](O)[C@@]1(C)F [Compound 2, hemi-sulfate salt of isopropyl((S)-(((2R,3R,4R,5R)-5-(2-amino-6-(methylamino)-9H-purin-9-yl)-4-fluoro-3-hydroxy-4-methyltetrahydrofuran-2-yl)methoxy)(phenoxy)phosphoryl)-L-alaninate]
Microbial Testing: Mold and Yeast: <1 cfu/g
Microbial Testing: TAMC: <1 cfu/g
